# Laboratory results reported in the supplement of paper PMC8728848.
# The other results are listed elsewhere or left out.
# B1: Gal 12 (Homo sapiens), Q96DT0 (protein)
# chain: MSQPSGGRAPGTRIYSWSCPTVMSPGEKLDPIPDSFILQPPVFHPVVPYVTTIFGGLHAGKMVMLQGVVPLDAHRFQVDFQCGCSLCPRPDIAFHFNPRFHTTKPHVICNTLHGGRWQREARWPHLALRRGSSFLILFLFGNEEVKVSVNGQHFLHFRYRLPLSHVDTLGIFGDILVEAVGFLNINPFVEGSREYPAGHPFLLMSPRLEVPCSHALPQGLSPGQVIIVRGLVLQEPKHFTVSLRDQAAHAPVTLRASFADRTLAWISRWGQKKLISAPFLFYPQRFFEVLLLFQEGGLKLALNGQGLGATSMNQQALEQLRELRISGSVQLYCVHS
# Key:
# Experiment in all cases: glycan array binding signal (z-score within array); higher = stronger binding
# Conditions in all cases: glycan notation: IUPAC condensed, linker removed
# [1] = target: Fuc(a1-2)[GalNAc(a1-3)]Gal(b1-3)GlcNAc
# Summary of the method: (§1)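 The binding signal is a Z-score computed within each array and averaged over linkers. Arrays of the same protein sequence at different concentrations or buffers were also averaged together. Data originate from 3228 arrays in the Consortium for Functional Glycomics database, kept only where the protein sequence was available.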
# [2] = target: Fuc(a1-2)[GalNAc(a1-3)]Gal(b1-3)GlcNAc(b1-2)Man(a1-3)[Fuc(a1-2)[GalNAc(a1-3)]Gal(b1-3)GlcNAc(b1-2)Man(a1-6)]Man(b1-4)GlcNAc(b1-4)GlcNAc
# Summary of the method: as §1
# [3] = target: Fuc(a1-2)[GalNAc(a1-3)]Gal(b1-3)GlcNAc(b1-2)Man(a1-3)[Fuc(a1-2)[GalNAc(a1-3)]Gal(b1-3)GlcNAc(b1-2)Man(a1-6)]Man(b1-4)GlcNAc(b1-4)[Fuc(a1-6)]GlcNAc
# Summary of the method: as §1
# [4] = target: Fuc(a1-2)[GalNAc(a1-3)]Gal(b1-3)GlcNAc(b1-3)GalNAc
# Summary of the method: as §1
# [5] = target: Fuc(a1-2)[GalNAc(a1-3)]Gal(b1-3)GlcNAc(b1-6)GalNAc
# Summary of the method: as §1
# [6] = target: Fuc(a1-2)[GalNAc(a1-3)]Gal(b1-4)Glc
# Summary of the method: as §1
# [7] = target: Fuc(a1-2)[GalNAc(a1-3)]Gal(b1-4)GlcNAc
# Summary of the method: as §1
# [8] = target: Fuc(a1-2)[GalNAc(a1-3)]Gal(b1-4)GlcNAc(b1-2)Man
# Summary of the method: as §1
# [9] = target: Fuc(a1-2)[GalNAc(a1-3)]Gal(b1-4)GlcNAc(b1-2)Man(a1-3)[Fuc(a1-2)[GalNAc(a1-3)]Gal(b1-4)GlcNAc(b1-2)Man(a1-6)]Man(b1-4)GlcNAc(b1-4)GlcNAc
# Summary of the method: as §1
# [10] = target: Fuc(a1-2)[GalNAc(a1-3)]Gal(b1-4)GlcNAc(b1-2)Man(a1-3)[Fuc(a1-2)[GalNAc(a1-3)]Gal(b1-4)GlcNAc(b1-2)Man(a1-6)]Man(b1-4)GlcNAc(b1-4)[Fuc(a1-6)]GlcNAc
# Summary of the method: as §1
# [11] = target: Fuc(a1-2)[GalNAc(a1-3)]Gal(b1-4)GlcNAc(b1-3)Gal(b1-4)GlcNAc
# Summary of the method: as §1
# [12] = target: Fuc(a1-2)[GalNAc(a1-3)]Gal(b1-4)GlcNAc(b1-3)Gal(b1-4)GlcNAc(b1-3)Gal(b1-4)GlcNAc
# Summary of the method: as §1
# [13] = target: Fuc(a1-2)[GalNAc(a1-3)]Gal(b1-4)GlcNAc(b1-3)GalNAc
# Summary of the method: as §1
# [14] = target: Fuc(a1-2)[GalNAc(a1-3)]Gal(b1-4)GlcNAc(b1-3)[Fuc(a1-2)[GalNAc(a1-3)]Gal(b1-4)GlcNAc(b1-6)]GalNAc
# Summary of the method: as §1
# [15] = target: Fuc(a1-2)[GalNAc(a1-3)]Gal(b1-4)GlcNAc(b1-6)GalNAc
# Summary of the method: as §1
# [16] = target: Fuc(a1-2)[GalNAc(a1-3)]Gal(b1-4)[Fuc(a1-3)]GlcNAc
# Summary of the method: as §1
# [17] = target: Fuc(a1-2)[GalNAc(a1-3)]Gal(b1-4)[Fuc(a1-3)]GlcNAc(b1-3)GalNAc
# Summary of the method: as §1
# [18] = target: Fuc(a1-2)[GalNAc(a1-4)]Gal(b1-4)GlcNAc
# Summary of the method: as §1
# [19] = target: Fuc(a1-2)[GalNAc(b1-3)]Gal
# Summary of the method: as §1
# Fuc(a1-3)GlcNAc = target: Fuc(a1-3)GlcNAc
# Summary of the method: as §1
# [20] = target: Fuc(a1-3)[Gal(b1-4)]Glc6S
# Summary of the method: as §1
# [21] = target: Fuc(a1-3)[Gal(b1-4)]GlcNAc
# Summary of the method: as §1
# [22] = target: Fuc(a1-3)[Gal(b1-4)]GlcNAc(b1-2)Man
# Summary of the method: as §1
# [23] = target: Fuc(a1-3)[Gal(b1-4)]GlcNAc(b1-2)Man(a1-3)[Fuc(a1-3)[Gal(b1-4)]GlcNAc(b1-2)Man(a1-6)]Man(b1-4)GlcNAc(b1-4)GlcNAc
# Summary of the method: as §1
# [24] = target: Fuc(a1-3)[Gal(b1-4)]GlcNAc(b1-2)Man(a1-3)[Fuc(a1-3)[Gal(b1-4)]GlcNAc(b1-2)Man(a1-6)]Man(b1-4)GlcNAc(b1-4)[Fuc(a1-6)]GlcNAc
# Summary of the method: as §1
# [25] = target: Fuc(a1-3)[Gal(b1-4)]GlcNAc(b1-3)Gal(b1-3)[Fuc(a1-4)]GlcNAc
# Summary of the method: as §1
# [26] = target: Fuc(a1-3)[Gal(b1-4)]GlcNAc(b1-3)GalNAc
# Summary of the method: as §1
# [27] = target: Fuc(a1-3)[Gal(b1-4)]GlcNAc(b1-4)Gal(b1-4)[Fuc(a1-3)]GlcNAc
# Summary of the method: as §1
# [28] = target: Fuc(a1-3)[Gal(b1-4)]GlcNAc(b1-4)Gal(b1-4)[Fuc(a1-3)]GlcNAc(b1-4)Gal(b1-4)[Fuc(a1-3)]GlcNAc
# Summary of the method: as §1
# [29] = target: Fuc(a1-3)[Gal(b1-4)]GlcNAc(b1-6)GalNAc
# Summary of the method: as §1
# [30] = target: Fuc(a1-3)[Gal(b1-4)]GlcNAc(b1-6)[Gal(b1-3)GlcNAc(b1-3)]Gal(b1-4)Glc
# Summary of the method: as §1
# [31] = target: Fuc(a1-3)[Gal(b1-4)]GlcNAc(b1-6)[Neu5Ac(a2-3)Gal(b1-3)]GalNAc
# Summary of the method: as §1
# [32] = target: Fuc(a1-3)[Gal(b1-4)]GlcNAc6S
# Summary of the method: as §1
# [33] = target: Fuc(a1-3)[Gal3S(b1-4)]Glc
# Summary of the method: as §1
# [34] = target: Fuc(a1-3)[Gal3S(b1-4)]GlcNAc
# Summary of the method: as §1
# [35] = target: Fuc(a1-3)[Gal3S(b1-4)]GlcNAc6S
# Summary of the method: as §1
# [36] = target: Fuc(a1-3)[GalNAc(b1-4)]GlcNAc
# Summary of the method: as §1
binder,measurement,setting,value
B1,glycan array binding signal (z-score),[1],-0.257
same,glycan array binding signal (z-score),[2],-0.312
same,glycan array binding signal (z-score),[3],0.723
same,glycan array binding signal (z-score),[4],1.71
same,glycan array binding signal (z-score),[5],-1.31
same,glycan array binding signal (z-score),[6],-0.1
same,glycan array binding signal (z-score),[7],0.03
same,glycan array binding signal (z-score),[8],-0.683
same,glycan array binding signal (z-score),[9],-0.022
same,glycan array binding signal (z-score),[10],-0.558
same,glycan array binding signal (z-score),[11],-0.705
same,glycan array binding signal (z-score),[12],-0.39
same,glycan array binding signal (z-score),[13],0.193
same,glycan array binding signal (z-score),[14],-0.877
same,glycan array binding signal (z-score),[15],-0.011
same,glycan array binding signal (z-score),[16],1.3
same,glycan array binding signal (z-score),[17],2.65
same,glycan array binding signal (z-score),[18],-0.686
same,glycan array binding signal (z-score),[19],0.304
same,glycan array binding signal (z-score),Fuc(a1-3)GlcNAc,-0.538
same,glycan array binding signal (z-score),[20],-0.505
same,glycan array binding signal (z-score),[21],-0.385
same,glycan array binding signal (z-score),[22],1.12
same,glycan array binding signal (z-score),[23],-0.687
same,glycan array binding signal (z-score),[24],1.62
same,glycan array binding signal (z-score),[25],-0.129
same,glycan array binding signal (z-score),[26],2.44
same,glycan array binding signal (z-score),[27],-0.147
same,glycan array binding signal (z-score),[28],-0.462
same,glycan array binding signal (z-score),[29],1
same,glycan array binding signal (z-score),[30],-0.581
same,glycan array binding signal (z-score),[31],0.106
same,glycan array binding signal (z-score),[32],-0.492
same,glycan array binding signal (z-score),[33],-0.65
same,glycan array binding signal (z-score),[34],0.346
same,glycan array binding signal (z-score),[35],1.35
same,glycan array binding signal (z-score),[36],-0.125

# Quoted at random: two records from the list.
binder,measurement,setting,value
B1,glycan array binding signal (z-score),[6],-0.1
same,glycan array binding signal (z-score),[34],0.346
